The results in this text go back to PMC9233733.

No constants are given. Whether binding was seen depends on the method and setting. A result given as binding can be weak or reduced; the word gives no strength.

Test [1] has as its target T1, Nup85 (Xenopus laevis (endogenous in oocytes)) (UniProt Q68FJ0).
T1 sequence: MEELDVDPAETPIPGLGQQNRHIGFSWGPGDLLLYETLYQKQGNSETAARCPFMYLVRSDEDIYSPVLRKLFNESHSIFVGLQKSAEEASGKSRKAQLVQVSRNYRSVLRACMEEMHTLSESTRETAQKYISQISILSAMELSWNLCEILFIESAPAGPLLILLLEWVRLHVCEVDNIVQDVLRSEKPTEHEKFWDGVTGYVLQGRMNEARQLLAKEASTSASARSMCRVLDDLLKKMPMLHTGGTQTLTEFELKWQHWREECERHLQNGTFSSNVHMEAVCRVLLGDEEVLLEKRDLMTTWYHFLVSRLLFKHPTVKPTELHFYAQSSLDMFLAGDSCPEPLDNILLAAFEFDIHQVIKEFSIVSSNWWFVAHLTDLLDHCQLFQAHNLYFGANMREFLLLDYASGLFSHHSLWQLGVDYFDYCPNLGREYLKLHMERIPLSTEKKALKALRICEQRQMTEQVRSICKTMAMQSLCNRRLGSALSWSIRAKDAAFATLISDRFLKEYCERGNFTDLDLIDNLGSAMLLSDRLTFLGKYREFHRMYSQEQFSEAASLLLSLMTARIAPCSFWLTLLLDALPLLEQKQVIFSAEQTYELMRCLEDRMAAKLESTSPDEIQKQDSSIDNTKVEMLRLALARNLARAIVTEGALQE
Put plainly: cryo-EM structure; cytoplasmic ring (CR) subunit of NPCs in the X. laevis oocyte nuclear envelope spread on the grid in HEPES buffer (83 mmol/L KCl, 17 mmol/L NaCl, 10 mmol/L HEPES, pH 7.5), cross-linked with 0.15% glutaraldehyde; single particle analysis, maps at 8.7 Å (subunit), 8 Å (core), 8.9 Å (Nup358 region); AlphaFold2 models fitted by MDFF.

Test [2] has as its target T1, Nup85 (Xenopus laevis (endogenous in oocytes)). Description: cryo-EM structure; nuclear ring (NR) subunit of NPCs in the X. laevis oocyte nuclear envelope spread on the grid in HEPES buffer (83 mmol/L KCl, 17 mmol/L NaCl, 10 mmol/L HEPES, pH 7.5), cross-linked with 0.15% glutaraldehyde; single particle analysis, maps at 8.1 Å (subunit), 7.8 Å (core), 8.6 Å (Nup133 region); AlphaFold2 models fitted by MDFF.

Test [3] concerns the target T2, Nup93 (Xenopus laevis (endogenous in oocytes)) (UniProt Q7ZX96).
T2 sequence: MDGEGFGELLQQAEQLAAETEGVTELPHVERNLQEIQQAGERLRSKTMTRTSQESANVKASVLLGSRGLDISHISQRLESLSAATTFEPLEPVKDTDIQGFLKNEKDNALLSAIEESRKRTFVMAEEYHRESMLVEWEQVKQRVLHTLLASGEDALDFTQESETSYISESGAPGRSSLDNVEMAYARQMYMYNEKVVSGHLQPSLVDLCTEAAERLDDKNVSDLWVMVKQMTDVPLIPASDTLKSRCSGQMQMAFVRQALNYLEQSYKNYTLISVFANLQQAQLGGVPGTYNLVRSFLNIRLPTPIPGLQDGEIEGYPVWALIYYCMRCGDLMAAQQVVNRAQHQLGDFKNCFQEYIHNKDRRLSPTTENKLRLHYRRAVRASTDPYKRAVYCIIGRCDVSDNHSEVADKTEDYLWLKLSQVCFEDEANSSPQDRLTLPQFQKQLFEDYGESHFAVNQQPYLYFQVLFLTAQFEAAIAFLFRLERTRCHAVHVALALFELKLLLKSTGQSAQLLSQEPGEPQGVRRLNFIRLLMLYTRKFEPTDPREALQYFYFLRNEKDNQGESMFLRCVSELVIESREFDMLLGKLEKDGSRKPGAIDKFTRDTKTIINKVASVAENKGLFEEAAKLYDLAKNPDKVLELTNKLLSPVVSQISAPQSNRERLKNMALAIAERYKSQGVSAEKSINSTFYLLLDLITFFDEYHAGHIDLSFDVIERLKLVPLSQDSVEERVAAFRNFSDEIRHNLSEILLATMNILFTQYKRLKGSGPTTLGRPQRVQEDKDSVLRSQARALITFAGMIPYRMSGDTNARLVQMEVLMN
Put plainly: cryo-EM structure; cytoplasmic ring (CR) subunit of NPCs in the X. laevis oocyte nuclear envelope spread on the grid in HEPES buffer (83 mmol/L KCl, 17 mmol/L NaCl, 10 mmol/L HEPES, pH 7.5), cross-linked with 0.15% glutaraldehyde; single particle analysis, maps at 8.7 Å (subunit), 8 Å (core), 8.9 Å (Nup358 region); AlphaFold2 models fitted by MDFF.

Test [4] concerns the target Nup96 (Xenopus laevis (endogenous in oocytes)). The description is as above.
Test [5] has the same target. Put plainly: cryo-EM structure; nuclear ring (NR) subunit of NPCs in the X. laevis oocyte nuclear envelope spread on the grid in HEPES buffer (83 mmol/L KCl, 17 mmol/L NaCl, 10 mmol/L HEPES, pH 7.5), cross-linked with 0.15% glutaraldehyde; single particle analysis, maps at 8.1 Å (subunit), 7.8 Å (core), 8.6 Å (Nup133 region); AlphaFold2 models fitted by MDFF.
Test [6] addresses Nup107 (Xenopus laevis (endogenous in oocytes)). Put plainly: cryo-EM structure; cytoplasmic ring (CR) subunit of NPCs in the X. laevis oocyte nuclear envelope spread on the grid in HEPES buffer (83 mmol/L KCl, 17 mmol/L NaCl, 10 mmol/L HEPES, pH 7.5), cross-linked with 0.15% glutaraldehyde; single particle analysis, maps at 8.7 Å (subunit), 8 Å (core), 8.9 Å (Nup358 region); AlphaFold2 models fitted by MDFF.

The target in test [7] is Sec13 (Xenopus laevis (endogenous in oocytes)). The description is as above.
The target in test [8] is Nup107 (Xenopus laevis (endogenous in oocytes)). Put plainly: cryo-EM structure; nuclear ring (NR) subunit of NPCs in the X. laevis oocyte nuclear envelope spread on the grid in HEPES buffer (83 mmol/L KCl, 17 mmol/L NaCl, 10 mmol/L HEPES, pH 7.5), cross-linked with 0.15% glutaraldehyde; single particle analysis, maps at 8.1 Å (subunit), 7.8 Å (core), 8.6 Å (Nup133 region); AlphaFold2 models fitted by MDFF.

As to “Nup205 (Xenopus laevis (endogenous in oocytes))”, the binding result in test [1] and in test [2] was “binds” throughout.
As to “Nup107 (Xenopus laevis (endogenous in oocytes))”, in test [2], the binding entry is listed as “binds”.
As to “Nup358 (Xenopus laevis (endogenous in oocytes))”, the binding result in test [3] is listed as “binds”.
As for “Nup88 (Xenopus laevis (endogenous in oocytes))”, the binding entry in test [1] is listed as “binds”.

B1: Nup85 (protein, UniProt Q68FJ0 1-653)
chain: T1 sequence
B1: the binding result in test [4] and in test [5] was “binds” in each case.

B2: Nup93 (protein, UniProt Q7ZX96 1-820)
chain: T2 sequence
As to B2, the binding entry in test [6], in test [4], in test [7], in test [8] and in test [5] was “binds” each time.
